Measurements published in publication doi:10.1101/2024.11.14.623552.
Where two headings read alike, the source gives them in different places. Results are given in words; binding and its absence hold for the method and conditions named. Binding seen in cells or lysates may run through a third protein. Some results given as binding are weak or reduced against the parent protein; the word gives no strength.

Amino acid sequences for entries named in this document (tags omitted).
UniProt P23696: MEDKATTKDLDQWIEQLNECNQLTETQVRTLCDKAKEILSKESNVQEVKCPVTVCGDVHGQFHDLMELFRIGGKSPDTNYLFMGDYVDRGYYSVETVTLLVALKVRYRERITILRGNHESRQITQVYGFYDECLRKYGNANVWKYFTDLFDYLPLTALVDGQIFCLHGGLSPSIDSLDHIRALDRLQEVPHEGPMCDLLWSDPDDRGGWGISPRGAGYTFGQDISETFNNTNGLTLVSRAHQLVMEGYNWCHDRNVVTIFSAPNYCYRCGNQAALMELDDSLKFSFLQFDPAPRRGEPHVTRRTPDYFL

Legend:
Assay in all cases: co-IP
Kibra (Kib) (Drosophila) [1] = molecular target: T1, Kibra (Kib) (Drosophila) (UniProt Q9VFG8)
T1 sequence: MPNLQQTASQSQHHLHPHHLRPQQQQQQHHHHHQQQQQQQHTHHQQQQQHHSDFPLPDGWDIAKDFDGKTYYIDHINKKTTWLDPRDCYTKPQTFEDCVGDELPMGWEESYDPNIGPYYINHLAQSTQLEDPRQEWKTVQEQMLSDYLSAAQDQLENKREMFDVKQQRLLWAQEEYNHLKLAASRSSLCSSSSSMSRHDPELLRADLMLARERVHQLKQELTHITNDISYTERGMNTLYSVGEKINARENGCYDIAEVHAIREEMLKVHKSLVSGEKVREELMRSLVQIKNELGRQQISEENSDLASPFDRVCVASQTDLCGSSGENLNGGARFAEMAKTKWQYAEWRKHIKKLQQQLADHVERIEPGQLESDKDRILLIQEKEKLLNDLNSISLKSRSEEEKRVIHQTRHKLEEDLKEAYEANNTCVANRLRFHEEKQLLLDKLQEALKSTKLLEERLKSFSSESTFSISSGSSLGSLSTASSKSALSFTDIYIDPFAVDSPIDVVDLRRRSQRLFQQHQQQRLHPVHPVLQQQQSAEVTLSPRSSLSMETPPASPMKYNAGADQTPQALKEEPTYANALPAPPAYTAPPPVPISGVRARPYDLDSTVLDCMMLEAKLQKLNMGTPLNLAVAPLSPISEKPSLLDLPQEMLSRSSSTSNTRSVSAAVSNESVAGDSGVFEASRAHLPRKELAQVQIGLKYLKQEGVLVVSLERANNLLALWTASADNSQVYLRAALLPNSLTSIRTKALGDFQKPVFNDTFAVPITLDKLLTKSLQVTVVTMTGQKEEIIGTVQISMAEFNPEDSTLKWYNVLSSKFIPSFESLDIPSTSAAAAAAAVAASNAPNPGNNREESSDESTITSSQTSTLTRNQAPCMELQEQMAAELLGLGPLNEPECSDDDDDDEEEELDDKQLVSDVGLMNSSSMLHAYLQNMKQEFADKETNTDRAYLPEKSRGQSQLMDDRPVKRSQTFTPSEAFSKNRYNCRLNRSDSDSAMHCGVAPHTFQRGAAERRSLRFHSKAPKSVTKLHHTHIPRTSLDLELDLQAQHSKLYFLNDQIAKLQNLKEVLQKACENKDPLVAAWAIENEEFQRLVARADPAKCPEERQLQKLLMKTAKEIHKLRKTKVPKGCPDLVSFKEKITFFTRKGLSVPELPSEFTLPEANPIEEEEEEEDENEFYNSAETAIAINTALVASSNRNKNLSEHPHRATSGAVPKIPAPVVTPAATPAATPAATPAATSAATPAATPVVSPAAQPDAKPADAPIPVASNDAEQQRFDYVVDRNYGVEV

[2] = molecular target: T2, Merlin (Mer) (Drosophila) (UniProt Q24564)
T2 sequence: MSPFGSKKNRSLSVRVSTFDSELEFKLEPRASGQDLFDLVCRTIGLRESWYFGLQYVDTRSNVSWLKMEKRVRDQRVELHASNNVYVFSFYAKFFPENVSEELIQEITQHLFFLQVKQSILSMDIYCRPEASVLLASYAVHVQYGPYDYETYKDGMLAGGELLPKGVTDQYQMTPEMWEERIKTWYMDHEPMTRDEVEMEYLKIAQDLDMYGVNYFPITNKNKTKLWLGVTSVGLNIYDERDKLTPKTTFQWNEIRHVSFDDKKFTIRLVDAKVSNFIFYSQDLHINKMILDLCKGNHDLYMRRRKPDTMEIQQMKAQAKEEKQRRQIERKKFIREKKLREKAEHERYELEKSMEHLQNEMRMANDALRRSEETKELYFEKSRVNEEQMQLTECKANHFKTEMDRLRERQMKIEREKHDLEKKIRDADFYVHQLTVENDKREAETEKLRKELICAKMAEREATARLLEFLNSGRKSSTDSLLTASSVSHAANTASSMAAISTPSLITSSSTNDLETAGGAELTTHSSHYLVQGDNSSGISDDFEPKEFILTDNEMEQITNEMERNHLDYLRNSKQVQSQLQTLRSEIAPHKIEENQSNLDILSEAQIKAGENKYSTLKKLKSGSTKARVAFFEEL

[3] = molecular target: T3, Expanded residues 1-468 (Ex^1-468) (Drosophila) (UniProt Q07436)
T3 sequence: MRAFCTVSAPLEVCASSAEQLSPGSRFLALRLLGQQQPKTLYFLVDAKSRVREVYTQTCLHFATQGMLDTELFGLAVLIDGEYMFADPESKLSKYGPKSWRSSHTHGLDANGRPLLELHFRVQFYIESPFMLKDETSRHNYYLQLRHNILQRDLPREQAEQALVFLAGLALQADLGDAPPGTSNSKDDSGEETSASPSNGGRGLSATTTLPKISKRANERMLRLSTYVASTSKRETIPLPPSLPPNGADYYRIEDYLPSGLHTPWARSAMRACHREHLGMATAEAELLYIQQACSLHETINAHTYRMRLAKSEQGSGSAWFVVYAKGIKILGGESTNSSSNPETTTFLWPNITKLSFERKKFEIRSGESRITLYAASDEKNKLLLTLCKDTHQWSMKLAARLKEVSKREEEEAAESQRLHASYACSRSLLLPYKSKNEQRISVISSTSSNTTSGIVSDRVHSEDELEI

Twins (Tws) (Drosophila) = molecular target: T4, Twins (Tws) (Drosophila) (UniProt P36872)
T4 sequence: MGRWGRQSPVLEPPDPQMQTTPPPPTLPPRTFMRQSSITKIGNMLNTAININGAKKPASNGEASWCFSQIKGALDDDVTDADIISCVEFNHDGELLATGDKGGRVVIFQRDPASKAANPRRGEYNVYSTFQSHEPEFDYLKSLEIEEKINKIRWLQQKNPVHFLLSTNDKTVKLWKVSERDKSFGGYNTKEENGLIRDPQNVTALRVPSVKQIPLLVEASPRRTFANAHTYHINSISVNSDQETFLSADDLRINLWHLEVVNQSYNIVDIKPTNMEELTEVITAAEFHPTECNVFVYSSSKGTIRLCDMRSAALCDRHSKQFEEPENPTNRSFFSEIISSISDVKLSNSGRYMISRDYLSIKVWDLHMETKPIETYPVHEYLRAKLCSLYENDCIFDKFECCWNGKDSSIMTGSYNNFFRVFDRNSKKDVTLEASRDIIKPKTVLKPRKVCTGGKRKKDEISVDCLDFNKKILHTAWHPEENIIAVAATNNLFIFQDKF

Kibra (Kib) (Drosophila) [4] = molecular target: T1, Kibra (Kib) (Drosophila); remark: listed apart in the source

“Microtubule star (Mts), catalytic subunit of PP2A, wild type (from UniProt P23696 1-309) (enzyme)” was tested, and the binding (Kibra (Kib) (Drosophila) [1]) was “binds”, the binding [2] was “no binding” and the binding [3] was “binds”.

B1: Expanded (Ex), construct of Fig. 4K not stated (protein, UniProt Q07436 1-1427)
chain: MRAFCTVSAPLEVCASSAEQLSPGSRFLALRLLGQQQPKTLYFLVDAKSRVREVYTQTCLHFATQGMLDTELFGLAVLIDGEYMFADPESKLSKYGPKSWRSSHTHGLDANGRPLLELHFRVQFYIESPFMLKDETSRHNYYLQLRHNILQRDLPREQAEQALVFLAGLALQADLGDAPPGTSNSKDDSGEETSASPSNGGRGLSATTTLPKISKRANERMLRLSTYVASTSKRETIPLPPSLPPNGADYYRIEDYLPSGLHTPWARSAMRACHREHLGMATAEAELLYIQQACSLHETINAHTYRMRLAKSEQGSGSAWFVVYAKGIKILGGESTNSSSNPETTTFLWPNITKLSFERKKFEIRSGESRITLYAASDEKNKLLLTLCKDTHQWSMKLAARLKEVSKREEEEAAESQRLHASYACSRSLLLPYKSKNEQRISVISSTSSNTTSGIVSDRVHSEDELEIMINTPPAPLAAPSTESLALAHLLDRPSVSRQTSSVGQMSLKDLEEQLAALSVRPQDASSNGATIVTNSSVQRNSMGTTANDSSTATDSPSSQHNIGSQCSSTCSTVVVTSPVNGAGASSSGAPIPVHSTSSSLELGFSHTAQNSALSETSPDDFLSTSAREETESVSGASGVYTLAHGAPPTETSGVYTMHSSELTGQSSEIAESEKSSHYGMFQPQKLEETHVQHSDSVDGKKKEDFRPRSDSNVSTGSSFRGDGSDPTDNKHSLLSAEELTNLIVGRGTYPSRKTVSSSLHSDCDYVTLPLGDQGEEEVDQPPAPPPPYSARHEKTGLCGPPIAKPIPKPIAVVAPKPDSPPCSPPVPPAPIPAPPPAIRRRDPPPYSISSKPRPTSLISVSSSAHPAPSAAGSMSSLKSEEVTARFITTRPQISILKAHTSLIPDGAKPSYAAPHHCSSVASSNGSVCSHQLSQQSLHNSNYAGGSQASLHHHHVPSHHRHSGSAAIGIVPYGLHKSTASLHHQQSCVLLPVIKPRQFLAPPPPSLPRQPPPPPPPNHPHLASHLYEREMARKQLELYQQQLYSDVDYVIYPIQDPAVSQQEYLDAKQGSLLAAMAQAAPPPPHHPYLAMQVSPAIYRSTPYLPLTLSTHSRYASTQNLSDTYVQLPGPGYSPLYSPSMASLCSSYEPPPPPPLHPAALAAAAAAGAGSSSSSMFARSRSDDNILNSLDLLPKGKRLPPPPPPPYVNRRLKKPPMPAPSEKPPPIPSKPIPSRMSPIPPRKPPTLNPHHANSPLTKTSSGAQWAGERPRPDLGLGLGLNRGNNSILAQLQASMVAQSHAQAQAQALDIALLREKSKHLDLPLISALCNDRSLLKQTKVVINPKTGQEMPTSSAQPSGATTNGVANSSAGAGTLSKARKGSTVSHRHPQDKLPPLPVQQLAEANNYVIDPAVMMKQQQQQQQHNKTS
In the case of B1, the binding (Twins (Tws) (Drosophila)) is reported as “binds”.

B2: Twins (Tws) (protein, UniProt P36872 1-499)
chain: T4 sequence
In the case of B2, the binding (Kibra (Kib) (Drosophila) [4]) is reported as “no binding”.
